Assay results taken from paper PMC10754140.
Results are given in words; binding and its absence hold for the method and conditions named. Binding seen in cells or lysates may run through a third protein. Here binding means that the protein was enriched with, or labelled near, the bait; the list need not be complete.

Target: T1, O‐GlcNAc transferase (OGT), endogenous (human (endogenous in MCF10A)) (UniProt O15294)
T1 sequence: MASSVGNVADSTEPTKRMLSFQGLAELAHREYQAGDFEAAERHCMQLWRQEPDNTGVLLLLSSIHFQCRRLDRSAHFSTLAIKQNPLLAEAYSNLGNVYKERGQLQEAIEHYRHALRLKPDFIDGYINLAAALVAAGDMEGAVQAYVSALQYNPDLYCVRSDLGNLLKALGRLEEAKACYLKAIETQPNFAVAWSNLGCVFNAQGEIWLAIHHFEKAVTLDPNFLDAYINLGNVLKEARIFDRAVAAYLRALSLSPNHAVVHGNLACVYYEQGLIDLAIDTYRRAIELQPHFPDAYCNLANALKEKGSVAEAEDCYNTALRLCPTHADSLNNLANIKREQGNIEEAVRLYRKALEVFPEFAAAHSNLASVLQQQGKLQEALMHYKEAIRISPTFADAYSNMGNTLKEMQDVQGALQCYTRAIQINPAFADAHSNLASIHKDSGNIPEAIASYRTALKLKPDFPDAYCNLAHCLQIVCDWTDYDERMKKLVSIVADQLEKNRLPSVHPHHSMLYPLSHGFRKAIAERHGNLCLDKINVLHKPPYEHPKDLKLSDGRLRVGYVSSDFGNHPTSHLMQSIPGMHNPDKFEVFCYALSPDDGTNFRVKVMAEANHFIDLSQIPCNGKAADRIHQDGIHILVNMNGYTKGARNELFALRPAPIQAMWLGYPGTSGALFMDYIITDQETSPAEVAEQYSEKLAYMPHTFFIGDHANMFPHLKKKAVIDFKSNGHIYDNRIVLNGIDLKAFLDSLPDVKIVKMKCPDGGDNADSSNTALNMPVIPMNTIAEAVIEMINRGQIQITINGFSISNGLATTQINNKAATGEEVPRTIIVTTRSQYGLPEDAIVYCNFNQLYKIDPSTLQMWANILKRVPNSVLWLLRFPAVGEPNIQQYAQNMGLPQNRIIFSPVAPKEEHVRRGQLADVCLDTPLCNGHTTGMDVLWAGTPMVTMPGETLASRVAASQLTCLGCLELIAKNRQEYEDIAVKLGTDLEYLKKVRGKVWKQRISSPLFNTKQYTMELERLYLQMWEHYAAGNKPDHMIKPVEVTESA
Assay: affinity purification with mass spectrometry; anti-OGT antibody used to immunoprecipitate endogenous OGT from MCF10A cell lysate; SDS-PAGE, Coomassie staining, tandem mass spectrometry

binding: binds
B1: centrosomal protein 131 (CEP131), endogenous (protein, UniProt Q9UPN4 1-1083)
chain: MKGTRAIGSVPERSPAGVDLSLTGLPPPVSRRPGSAATTKPIVRSVSVVTGSEQKRKVLEATGPGGSQAINNLRRSNSTTQVSQPRSGSPRPTEPTDFLMLFEGSPSGKKRPASLSTAPSEKGATWNVLDDQPRGFTLPSNARSSSALDSPAGPRRKECTVALAPNFTANNRSNKGAVGNCVTTMVHNRYTPSERAPPLKSSNQTAPSLNNIIKAATCEGSESSGFGKLPKNVSSATHSARNNTGGSTGLPRRKEVTEEEAERFIHQVNQATVTIQRWYRHQVQRRGAGAARLEHLLQAKREEQRQRSGEGTLLDLHQQKEAARRKAREEKARQARRAAIQELQQKRALRAQKASTAERGPPENPRETRVPGMRQPAQELSPTPGGTAHQALKANNTGGGLPAAGPGDRCLPTSDSSPEPQQPPEDRTQDVLAQDAAGDNLEMMAPSRGSAKSRGPLEELLHTLQLLEKEPDVLPRPRTHHRGRYAWASEVTTEDDASSLTADNLEKFGKLSAFPEPPEDGTLLSEAKLQSIMSFLDEMEKSGQDQLDSQQEGWVPEAGPGPLELGSEVSTSVMRLKLEVEEKKQAMLLLQRALAQQRDLTARRVKETEKALSRQLQRQREHYEATIQRHLAFIDQLIEDKKVLSEKCEAVVAELKQEDQRCTERVAQAQAQHELEIKKLKELMSATEKARREKWISEKTKKIKEVTVRGLEPEIQKLIARHKQEVRRLKSLHEAELLQSDERASQRCLRQAEELREQLEREKEALGQQERERARQRFQQHLEQEQWALQQQRQRLYSEVAEERERLGQQAARQRAELEELRQQLEESSSALTRALRAEFEKGREEQERRHQMELNTLKQQLELERQAWEAGRTRKEEAWLLNREQELREEIRKGRDKEIELVIHRLEADMALAKEESEKAAESRIKRLRDKYEAELSELEQSERKLQERCSELKGQLGEAEGENLRLQGLVRQKERALEDAQAVNEQLSSERSNLAQVIRQEFEDRLAASEEETRQAKAELATLQARQQLELEEVHRRVKTALARKEEAVSSLRTQHEAAVKRADHLEELLEQHRRPTPSTK
